For data set [1] the following is noted: for Assay (On dried Basis) (% w/w): specification: Not less than 98.0 and not more than 102.0; for Loss on drying (% w/w): specification: Not more than 0.5; for Description: specification: White to creamy white colour powder; for Identification by HPLC: specification: retention time of principal peak corresponds to standard solution.
The conditions of data set [2]: at room temperature.
Setting [3] is: 3 months, storage 30° C.±2° C. at 65%±5% RH and 40° C.±2° C. at 75%±5% RH.
Where [4] appears, read: 6 months, storage 30° C.±2° C. at 65%±5% RH and 40° C.±2° C. at 75%±5% RH.

Like-named read-outs stand apart in the source and are kept apart here.

The values that follow come from patent US20240182514A1, “Process for the Preparation of Alfaxalone” (Respect Labs LLP, priority 2021, published 2024).

`CC(=O)[C@H]1CC[C@H]2[C@@H]3CC[C@H]4C[C@H](O)CC[C@]4(C)[C@H]3C(=O)C[C@]12C` [Alfaxalone, 3-α-hydroxy-5-α-pregnane-11, 20-dione]: in data set [1] (setting [3]), the “Assay (On dried Basis) (% w/w)” value was “Complies”, the “Loss on drying (% w/w)” value was “Complies”, the Description result is reported as “white colour” and the “Identification by HPLC” value is reported as “Complies”. In data set [1] (setting [4]), the “Assay (On dried Basis) (% w/w)” value was “Complies”, the “Loss on drying (% w/w)” value is given as “Complies”, the Description entry is “white colour” and the “Identification by HPLC” value is recorded as “Complies”. In data set [1] (Initial), the “Assay (On dried Basis) (% w/w)” value is reported as “Complies”, the “Loss on drying (% w/w)” value is given as “Complies”, the Description result is on record as “white colour” and the “Identification by HPLC” value was “Complies”. Also, the “stable for (duration of stability)” value in data set [2] was “at least 6 months”.
